{"source": "paper PMC8761896", "about": "(2021)", "binders": {"B1": {"name": "eOD-GT6 (other)", "chain": "DTITLPCRPAPPPHCSSNITGLILTRDGGVSNDETEIFRPSGGDMRDIARCQIAGTVVSTQLFLNGSLAEEEVVIRSVDFRDNAKSICVQLATSVEIACTGAGHCAISRAKWANTLKQIASKLREQFGARTIIFKQSSGGDPEFVTHSFNCGGEFFYCDSTQLFASTWFAST"}}, "key": {"VRC01gl_Q39LH_ins107aL": {"biological_target": "VRC01gl_Q39LH_ins107aL", "experiment": "SPR"}, "VRC01gl_Q39LH_Y91FH": {"biological_target": "VRC01gl_Q39LH_Y91FH", "experiment": "SPR"}}}
{"binder": "B1", "values": [{"measurement": "Kd", "setting": "VRC01gl_Q39LH_ins107aL", "value": 13.5, "unit": "nM"}, {"measurement": "koff", "setting": "VRC01gl_Q39LH_ins107aL", "value": 0.000569, "unit": "s⁻¹"}, {"measurement": "Kd", "setting": "VRC01gl_Q39LH_Y91FH", "value": 10.3, "unit": "nM"}, {"measurement": "koff", "setting": "VRC01gl_Q39LH_Y91FH", "value": 0.000541, "unit": "s⁻¹"}]}
